From paper PMC12040169 (PLOS Biology, 2025)
The other results are listed elsewhere or left out.

Tested on: T1, CTL2-GFP (C. trachomatis L2/434/Bu, GFP-expressing)
T1 construct: L2/434/Bu, GFP-expressing
Set-up: species or system HeLa; Intracellular C. trachomatis growth in HeLa cells, bulk GFP fluorescence relative to DMSO
Settings: bulk GFP, single well; 28.5 h, 10 µM; inhibitor

Row | SMILES | % of control remaining [%]
1 | O=C(c1ccc2c(c1)C(=O)N(c1ccncc1)C2=O)c1ccc2c(c1)C(=O)N(c1ccncc1)C2=O [CBK261194] | 100
2 | COC(=O)c1ccccc1NC(=O)CC1Nc2ccccc2NC1=O (centres unmarked) [CBK269276A] | 119.229
3 | COc1ccc(-c2nnc3ccc(SC(C)C)nn23)cc1OC [CBK287526] | 124.229
4 | CCn1cc(CC(=O)NCCn2ccc(C)n2)c2ccccc21 [CBK282670] | 106.724
5 | CCn1c(SCC(=O)N2CCC(C(N)=O)(N3CCCCC3)CC2)nnc1-c1ccccc1 [CBK266135] | 130.98
6 | Cc1nonc1NC(=O)CN1CCCCC1 [CBK261839] | 116.171
7 | Nc1nccn(CCOc2cc(F)c(F)cc2F)c1=O [CBK138204T] | 178.487
8 | COCC(=O)N[C@H]1C[C@H]2C(=O)Nc3ccc(/C=C/c4ccccc4)cc3C(=O)N2C1 [CBK289366] | 8.922
9 | O=C(c1cccs1)N1CCC(c2nnc3n2CCCCC3)CC1 [CBK284626] | 109.715
10 | O=S(=O)(Nc1nnc(C(F)(F)F)s1)c1ccc(-c2cc(C(F)(F)F)on2)s1 [CBK062019] | 89.7676
11 | O=C(O)C1CC=CCC1C(=O)Nc1ccc(CN2CCOCC2)cc1 (centres unmarked) [CBK299786] | 99.3001
12 | CNC(=O)CSc1nnc(COc2cccc3ccccc23)n1-c1ccccc1 [CBK266043] | 165.97
13 | Cc1cccc(Cn2c(=O)c3cnc(-c4ccncc4)nc3n(C)c2=O)c1 [CBK288593] | 120.192
14 | O=c1c2c3c(sc2ncn1CC(O)COc1ccc(F)cc1)CCC3 (centres unmarked) [CBK295191] | 127.191
15 | O=c1[nH]c2ncc(-c3ccco3)nc2n1CCc1cccnc1 [CBK064494] | 162.645
16 | COc1ccccc1Cc1cccc(C2CCCN2C(=O)CCc2ccccc2)n1 (centres unmarked) [CBK286229] | 76.5908
17 | Cc1c(C(=O)Nc2cccc(C(F)(F)F)c2)sc2nc(-c3ccccc3)cn12 [CBK294408] | 169.136
18 | CC1(C)CC(=O)C2=C(C1)c1c(ccc3ccccc13)NC2c1ccc(-c2ccc(O)c(C(=O)O)c2)o1 (centres unmarked) [CBK261823] | 76.6137
19 | C[C@@H](Cn1nnc2ccccc21)NC(=O)c1cccs1 [CBK284322] | 115.6
20 | CCOC(=O)c1cccc(NS(=O)(=O)c2ccc(-c3ccccc3)cc2)c1 [CBK034341] | 111.631
21 | CC(=O)Nc1ccc(N(CC(O)Cn2c3ccccc3c3ccccc32)S(C)(=O)=O)cc1 (centres unmarked) [CBK264352] | 129.782
22 | CC(C)CCN[C@H]1CO[C@H]2[C@@H]1OC[C@@H]2n1nnnc1-c1ccccc1 [CBK289537] | 121.538
23 | O=C(Cc1ccc(F)cc1)N1CCC(n2cnc3cccnc32)CC1 [CBK283574] | 90.3087
24 | c1ccc2nc(N3CCCC3)c(Sc3nc[nH]n3)nc2c1 [CBK115265] | 133.712
25 | CC(C)n1c(=O)oc2cc(S(=O)(=O)NC(c3ccccc3)c3ccccc3)ccc21 [CBK286350] | 73.0261
26 | OC(CN1CCC(O)(c2ccccc2F)CC1)c1ccc(Cl)cc1 (centres unmarked) [CBK283312] | 130.092

Row | SMILES | % of control remaining [%]
27 | Cc1[nH]c2ccccc2c1/C=N/c1ccc(/N=C/c2c(C)[nH]c3ccccc23)cc1 [CBK261226] | 100
28 | COCC(O)CN(C)C(=O)c1ccc(Oc2cccc(Br)c2)nc1 (centres unmarked) [CBK304229] | 74.86
29 | O=C1CC(c2ccco2)CC(=O)C1=CNCCN1CCN(C(=O)Nc2ccc(Cl)cc2)CC1 (centres unmarked) [CBK264743] | 100
30 | O=S(=O)(Nc1nnn[nH]1)c1ccc(-c2ccccc2)cc1 [CBK062381] | 100
31 | Cc1nn(CC(=O)N2CCCCCC2)c(=O)c2cc3occc3n12 [CBK283624] | 89.0267
32 | Cn1ncc(N2CCC(CNC(=O)c3ccccc3Cl)C2)cc1=O (centres unmarked) [CBK306747] | 118.628
33 | CCc1nnc2ccc(NCc3ccccc3)nn12 [CBK287888] | 69.3418
34 | CCOC(=O)CCCNC(=O)N1CCCC(C(=O)O)C1 (centres unmarked) [CBK161374] | 93.0895
35 | c1cnc(-c2ccc3c(c2)OCO3)c(OC2CCCCC2)n1 [CBK106706] | 100
36 | CC(C)(C)C1=CC2=NC3(CCCCC3)[C@@H]3C[C@@H](O)[C@@H](O)[C@@H]3N2O1 [CBK303235] | 133.167
37 | O=C(c1ccccc1)N1C[C@H](c2ccsc2)[C@H]2CN(Cc3cccs3)CC[C@H]21 [CBK285623] | 100.338
38 | CN(Cc1ccc2c(c1)OCO2)C(=O)c1cnn2c(-c3ccccc3)ccnc12 [CBK298276] | 137.319
39 | Cc1cc(C)c(C)c(S(=O)(=O)NCc2ccc(C(=O)Nc3ccncc3)cc2)c1C [CBK267193] | 90.0126
40 | CC(=O)NCCNC(=O)c1ccc(-c2cnc(OCC3CCN(C(=O)OC(C)(C)C)CC3)nc2)cn1 [CBK170023] | 107.881
41 | COc1ccc(N(CCC#N)S(=O)(=O)c2cccc3nsnc23)cc1 [CBK025851] | 78.4601
42 | O=C(O)/C=C/C(=O)Nc1ccccc1Br [CBK086488] | 111.365
43 | O=C(CN1CCCCCC1=O)NCC(CO)Cc1ccsc1 (centres unmarked) [CBK306763] | 103.985
44 | Cc1cc(-c2cn3cc(C(=O)N(C)CC(C)O)nc3c(=O)n2C)c(C)o1 (centres unmarked) [CBK307154] | 137.794
45 | CCOC(=O)N1CCCN(C(=O)OCC)CC1 [CBK034324] | 111.873
46 | N#Cc1cccnc1N1CCC(NC(=O)c2ccc3nccn3c2)CC1 [CBK306566] | 85.6608
47 | O=C(Cc1ccccc1F)N1CCC(c2cc3cccnc3[nH]2)CC1 [CBK285035] | 105.788
48 | COc1ccccc1-c1ccc(Nc2ccccc2)nc1 [CBK036909] | 139.251
49 | Cc1cccc(CN2CC[C@H]3[C@@H](C2)[C@H](c2ccsc2)CN3C(=O)c2ccc(F)cc2)c1 [CBK285639] | 102.422
50 | CC(NC(=O)c1ncoc1-c1ccc(F)cc1)c1cccnc1 (centres unmarked) [CBK282358] | 105.404
51 | CC(Sc1ccc(Br)c2cccc(C(=O)O)c12)C(=O)O (centres unmarked) [CBK266226] | 129.003
52 | CC(=O)Nc1ccc(OC(=O)c2ccc(Br)o2)cc1 [CBK293917] | 102.134

Row | SMILES | % of control remaining [%]
53 | CCN(Cc1cnn(C)c1)S(=O)(=O)c1ccc2c(c1)CCCC(=O)N2 [CBK304782] | 131.696
54 | O=C1CCC(=O)N1CCOc1nccnc1-c1ccc2c(c1)OCO2 [CBK106698] | 152.907
55 | O=[N+]([O-])c1cccc(Cn2c(CO)nc3ccccc32)c1 [CBK297515] | 119.929
56 | Cc1ccc(S(=O)(=O)Nc2ccc(C(C)C)cc2)cc1C(=O)O [CBK297766] | 149.936
57 | CC(CCN(CCN)C(=O)N1CCC(CNS(C)(=O)=O)(c2ccccc2)CC1)c1ccccc1 (centres unmarked) [CBK002335C] | 129.565
58 | Cc1ccc(C(=O)NC2CCCC2)cc1[N+](=O)[O-] [CBK001993] | 49.5788
59 | Cn1c(CSCc2ccccc2F)nnc1SCC(=O)c1ccc(Br)cc1 [CBK269143] | 126.716
60 | NC(=O)C1CCN(C(=O)CCCSc2nc(-c3ccco3)cc(C(F)(F)F)n2)CC1 [CBK268844] | 91.7796
61 | CC(C)CN1C(=O)c2ccc(C(=O)NCc3ccc(C(=O)O)cc3)cc2C1=O [CBK286898] | 110.887
62 | FC(F)(F)c1ccnc(SCc2ccc(Cl)c(Cl)c2)n1 [CBK103723] | 92.1034
63 | O=C(Nc1ncn(CC(=O)N2CCCCCC2)n1)c1cccc(F)c1 [CBK304904] | 115.346
64 | C1=CC2CC1CC2CN1CCC(N(CCc2ccccc2)Cc2ccccc2)CC1 (centres unmarked) [CBK264613G] | 100
65 | COc1ccc(NC(=O)Cc2csc(NC(C)=O)n2)cc1 [CBK287650] | 115.845
66 | COC(=O)c1sc2ncccc2c1NS(=O)(=O)Cc1ccccc1[N+](=O)[O-] [CBK049974] | 100.464
67 | c1cc2c(cc1CN1CCC(Oc3cncc(OCCN4CCOCC4)n3)C1)OCO2 (centres unmarked) [CBK084487] | 120.123
68 | Cc1cn([C@H]2C[C@@H](O)[C@@H](CO)O2)c(=O)nc1-n1cncn1 [CBK201235] | 80.1459
69 | O=C(NCCO)c1cccc(-c2cc(N3CCCC3CO)n3nccc3n2)c1 (centres unmarked) [CBK037187] | 149.141
70 | CCc1nc2cc(NC(=O)Cn3cc(C)cn3)ccc2n1CC [CBK281608] | 142.791
71 | O=C(COc1ccc2ccccc2c1)OCC(=O)c1ccc([N+](=O)[O-])cc1 [CBK261586] | 121.446
72 | C[C@]12CN(Cc3cccs3)C[C@H]1C(=O)Nc1ccccc1C(=O)N2 [CBK284705] | 178.676
73 | Cc1ccn(CCNC(=O)CSc2nccc3ccccc23)n1 [CBK282678] | 100.771
74 | CS(=O)(=O)NCC1(c2ccccc2)CCN(S(=O)(=O)c2c(Cl)cccc2Cl)CC1 [CBK051633] | 145.022
75 | CCOC(=O)c1c(NC(=O)CSc2nc[nH]n2)sc2c1CCC2 [CBK267225] | 141.632
76 | Cc1ccc(NC(=O)c2cc(NC(=O)C3C4C=CC(C4)C3C(=O)O)ccc2N2CCCCC2)cc1 (centres unmarked) [CBK265350] | 119.786
77 | C=CCN1C(=O)CC2(C1=O)C(=O)N(CCCn1c(=O)c3c(ncn3C)n(C)c1=O)c1ccc(OC)cc12 (centres unmarked) [CBK075701] | 147.813

Shown with each value named: entries from further up.
Cc1ccc(C(=O)NC2CCCC2)cc1[N+](=O)[O-] [CBK001993]
  % of control remaining [%]: 49.5788
Cn1c(CSCc2ccccc2F)nnc1SCC(=O)c1ccc(Br)cc1 [CBK269143]
  % of control remaining [%]: 126.716
NC(=O)C1CCN(C(=O)CCCSc2nc(-c3ccco3)cc(C(F)(F)F)n2)CC1 [CBK268844]
  % of control remaining [%]: 91.7796
